PubChem BioAssay AID743454 – Peter MacCallum Cancer Centre, 2014

Test: 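Knock-downs lowering viability or raising caspase 3/7 activity in vorinostat-treated resistant cells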 (primary screen)
Cells: human HCT116-VR colon cancer cells, selected for vorinostat resistance
Reagent: siRNA pool against human genes, 40 nM siRNA pool
Duration: vorinostat for 24 h, read-out about 72 h after transfection
Treatment: vorinostat at 2.5 µM final
Read-out: 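Two measures, CellTiter-Fluor viability and luminescent caspase 3/7 activity, each as fold change against same-plate mock wells, mean of duplicates, then screen-wide robust z-score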
Reading the numbers: viability robust z-score: higher = more viable cells than screen typical; caspase robust z-score: higher = more caspase 3/7 activity than screen typical
Active means: 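a knock-down is a hit when classed RV1 or RV2 for lowered viability, or CA1 or CA2 for caspase activation; those lethal without drug were dropped; hits were retested singly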
The whole screen tested about 18,000 reagents; shown is a random part of them. 450 of them (2.5%) count as active. 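Single biological run; no consistent viability z cut-off exists, so the class columns, not z-scores, define the calls.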

| gene symbol | PubChem SID | viability hit class | caspase hit class | viability robust z-score | caspase robust z-score | call |
| --- | --- | --- | --- | --- | --- | --- |
| DDX54 (DEAD-box helicase 54) | SID152154194 | no change | no change | -1.38 | -0.58 | inactive |
| ZNF543 (zinc finger protein 543) | SID135624411 | no change | no change | 0.18 | -1.19 | inactive |
| ZDHHC15 (zDHHC palmitoyltransferase 15) | SID134320174 | no change | no change | 0.5 | -0.41 | inactive |
| NXF3 (nuclear RNA export factor 3) | SID134313317 | no change | no change | 0.88 | 0 | inactive |
| NLRP4 (NLR family pyrin domain containing 4) | SID152153178 | no change | no change | -1.82 | 3.44 | inactive |
| BCL11A (BCL11 transcription factor A) | SID152152211 | no change | no change | -1.12 | 2.11 | inactive |
| TMEM63A (transmembrane protein 63A) | SID152152134 | no change | no change | 1.01 | 0.02 | inactive |
| CALR (calreticulin) | SID134313083 | no change | no change | -0.31 | -0.76 | inactive |
| NAXE (NAD(P)HX epimerase) | SID135623149 | no change | no change | 0.3 | -0.72 | inactive |
| GJD3 (gap junction protein delta 3) | SID152151003 | no change | no change | 0.3 | -0.59 | inactive |
| IMPG1 (interphotoreceptor matrix proteoglycan 1) | SID152150741 | no change | no change | -2.85 | 0.27 | inactive |
| ADGRV1 (adhesion G protein-coupled receptor V1) | SID152151100 | no change | no change | 0.57 | -0.31 | inactive |
| MRPS21 (mitochondrial ribosomal protein S21) | SID134317615 | no change | no change | -0.39 | 1.16 | inactive |
| F3 (coagulation factor III, tissue factor) | SID134310488 | no change | no change | 0.58 | 0.55 | inactive |
| ALDH1B1 (aldehyde dehydrogenase 1 family member B1) | SID134313137 | no change | no change | 0.52 | 1.06 | inactive |
| ABCC11 (ATP binding cassette subfamily C member 11) | SID152150318 | no change | no change | 0.5 | 2.42 | inactive |
| CT45A2 (cancer/testis antigen family 45 member A2) | SID135625699 | no change | no change | -0.16 | 0.76 | inactive |
| RUBCNL (rubicon like autophagy enhancer) | SID152147406 | no change | no change | 0.48 | -0.11 | inactive |
| NMB (neuromedin B) | SID134310186 | no change | no change | -0.55 | 1.08 | inactive |
| CLDN17 (claudin 17) | SID134323740 | no change | no change | -1.31 | -0.56 | inactive |
| MAGEB2 (MAGE family member B2) | SID134322906 | no change | no change | -0.46 | 2.5 | inactive |
| HTR3B (5-hydroxytryptamine receptor 3B) | SID134311623 | no change | no change | -0.55 | 0.66 | inactive |
| ADAM11 (ADAM metallopeptidase domain 11) | SID135621764 | no change | no change | 0.28 | 1.04 | inactive |
| RSKR (ribosomal protein S6 kinase related) | SID56478814 | no change | no change | -0.74 | 1.01 | inactive |
| ARFIP1 (ARF interacting protein 1) | SID152150717 | no change | no change | 0.9 | 2.84 | inactive |
| OR56A1 (olfactory receptor family 56 subfamily A member 1) | SID134329802 | no change | no change | 0.16 | 1.08 | inactive |
| OR6C68 (olfactory receptor family 6 subfamily C member 68) | SID134329951 | no change | no change | -0.18 | -0.49 | inactive |
| CNOT11 (CCR4-NOT transcription complex subunit 11) | SID134324577 | no change | no change | 0.64 | 0.19 | inactive |
| USP34 (ubiquitin specific peptidase 34) | SID152154888 | no change | no change | 0.69 | -1.11 | inactive |
| ADCY5 (adenylate cyclase 5) | SID134311929 | no change | no change | -0.52 | 1.34 | inactive |
| NCOA4 (nuclear receptor coactivator 4) | SID152151096 | no change | CA2 (caspase activation) | -3.71 | 5.55 | active |
| FBXL12 (F-box and leucine rich repeat protein 12) | SID134310803 | no change | no change | -0.02 | 0.55 | inactive |
| MACROH2A1 (macroH2A.1 histone) | SID134316273 | no change | no change | 0.05 | 0.19 | inactive |
| FANCI (FA complementation group I) | SID152149246 | no change | no change | 0.24 | -0.28 | inactive |
| RER1 (retention in endoplasmic reticulum sorting receptor 1) | SID152156393 | no change | no change | -0.14 | -0.16 | inactive |
| TAS2R39 (taste 2 receptor member 39) | SID152151375 | no change | no change | -0.06 | -0.8 | inactive |
| TREH (trehalase) | SID135623792 | no change | no change | -1.14 | 1.9 | inactive |
| PRRG4 (proline rich and Gla domain 4) | SID152148527 | no change | no change | 0.46 | 0.28 | inactive |
| KLF11 (KLF transcription factor 11) | SID135621224 | no change | no change | 0.44 | 0.45 | inactive |
| RPL9 (ribosomal protein L9) | SID135622064 | no change | no change | -3.48 | -0.42 | inactive |
| TSPAN11 (tetraspanin 11) | SID135625351 | no change | no change | -0.43 | 0.17 | inactive |
| H2BC13 (H2B clustered histone 13) | SID134315776 | no change | no change | 0.82 | 0.72 | inactive |
| ZBTB24 (zinc finger and BTB domain containing 24) | SID134312043 | no change | no change | -0.25 | 0.86 | inactive |
| KRTAP4-12 (keratin associated protein 4-12) | SID135622547 | no change | no change | 0.64 | 0.35 | inactive |
| KLHL36 (kelch like family member 36) | SID135623520 | no change | no change | 0.84 | -1.08 | inactive |
| THBS2 (thrombospondin 2) | SID135623825 | no change | no change | 0.02 | 0.01 | inactive |
| POLR3F (RNA polymerase III subunit F) | SID134323044 | no change | no change | -0.74 | 0.65 | inactive |
| ZFP90 (ZFP90 zinc finger protein) | SID135624312 | no change | no change | -1.19 | 0.07 | inactive |
| TRPM7 | SID152149681 | no change | no change | -1.94 | -1.27 | inactive |
| NUAK2 (NUAK family kinase 2) | SID56479046 | no change | no change | 0.71 | -0.36 | inactive |
| RAPGEFL1 (Rap guanine nucleotide exchange factor like 1) | SID152146985 | no change | no change | 1.53 | -1.03 | inactive |
| HSPA12B (heat shock protein family A (Hsp70) member 12B) | SID134321472 | no change | no change | -0.22 | -1.07 | inactive |
| MCTP2 (multiple C2 and transmembrane domain containing 2) | SID152153872 | no change | no change | 0.24 | 0.96 | inactive |
| OIP5 (Opa interacting protein 5) | SID134317035 | no change | no change | 1.3 | 0.02 | inactive |
| H1-7 (H1.7 linker histone) | SID152152151 | no change | no change | 0.43 | 0.47 | inactive |
| TMC1 (transmembrane channel like 1) | SID152148476 | no change | no change | 1.64 | 2.1 | inactive |
| OR2A12 (olfactory receptor family 2 subfamily A member 12) | SID152153327 | no change | no change | -0.97 | 1.2 | inactive |

Not a retest: entries from further up.
| gene symbol | PubChem SID | viability hit class | caspase hit class | viability robust z-score | caspase robust z-score | call |
| --- | --- | --- | --- | --- | --- | --- |
| OR6C68 (olfactory receptor family 6 subfamily C member 68) | SID134329951 | no change | no change | -0.18 | -0.49 | inactive |
| CNOT11 (CCR4-NOT transcription complex subunit 11) | SID134324577 | no change | no change | 0.64 | 0.19 | inactive |
| USP34 (ubiquitin specific peptidase 34) | SID152154888 | no change | no change | 0.69 | -1.11 | inactive |
| ADCY5 (adenylate cyclase 5) | SID134311929 | no change | no change | -0.52 | 1.34 | inactive |
| NCOA4 (nuclear receptor coactivator 4) | SID152151096 | no change | CA2 (caspase activation) | -3.71 | 5.55 | active |
| FBXL12 (F-box and leucine rich repeat protein 12) | SID134310803 | no change | no change | -0.02 | 0.55 | inactive |
| MACROH2A1 (macroH2A.1 histone) | SID134316273 | no change | no change | 0.05 | 0.19 | inactive |
